Compound in the assay: Nc1ncnc2c1ncn2[C@@H]1O[C@H](COP(=O)(O)OP(=O)(O)NP(=O)(O)O)[C@@H](O)[C@H]1O [adenylyl imidodiphosphate]
Kind of assay: NP40-soluble protein abundance relative to vehicle (solubility fold change) (ratio); higher = more soluble protein in presence of AMP-PNP. In short, it runs like this: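 Jurkat crude lysate (Dounce-homogenised) was treated with eight concentrations from 0.1 to 10 mM for 10 min at room temperature, then 3 min at 37 °C. It was solubilised with 0.8% NP40 and benzonase (60 min, 4 °C) and ultracentrifuged, and the supernatant was TMT-labelled for LC-MS/MS. Intensities were vsn-normalised, and the value is the fold change against the NP40-processed vehicle per replicate, from three independent experiments.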

The chains behind the UniProt entries cited, without tags or fusion partners. Where a name states a change or a piece, a line headed by the entry shows the natural chain unless it says otherwise.
UniProt O75264: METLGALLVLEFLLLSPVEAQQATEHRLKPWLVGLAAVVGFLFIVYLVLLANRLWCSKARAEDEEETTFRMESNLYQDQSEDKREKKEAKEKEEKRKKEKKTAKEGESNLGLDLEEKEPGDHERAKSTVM
UniProt O14745: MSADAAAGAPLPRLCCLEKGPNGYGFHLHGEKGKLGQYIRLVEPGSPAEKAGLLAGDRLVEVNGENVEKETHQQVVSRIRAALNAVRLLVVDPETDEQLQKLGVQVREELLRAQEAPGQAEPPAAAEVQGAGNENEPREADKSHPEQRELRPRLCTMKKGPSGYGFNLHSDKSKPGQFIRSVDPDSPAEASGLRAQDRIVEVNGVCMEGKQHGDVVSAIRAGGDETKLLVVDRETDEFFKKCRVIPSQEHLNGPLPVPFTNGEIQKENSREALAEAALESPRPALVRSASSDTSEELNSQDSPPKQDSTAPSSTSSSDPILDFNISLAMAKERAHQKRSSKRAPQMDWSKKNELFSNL
UniProt Q49A26: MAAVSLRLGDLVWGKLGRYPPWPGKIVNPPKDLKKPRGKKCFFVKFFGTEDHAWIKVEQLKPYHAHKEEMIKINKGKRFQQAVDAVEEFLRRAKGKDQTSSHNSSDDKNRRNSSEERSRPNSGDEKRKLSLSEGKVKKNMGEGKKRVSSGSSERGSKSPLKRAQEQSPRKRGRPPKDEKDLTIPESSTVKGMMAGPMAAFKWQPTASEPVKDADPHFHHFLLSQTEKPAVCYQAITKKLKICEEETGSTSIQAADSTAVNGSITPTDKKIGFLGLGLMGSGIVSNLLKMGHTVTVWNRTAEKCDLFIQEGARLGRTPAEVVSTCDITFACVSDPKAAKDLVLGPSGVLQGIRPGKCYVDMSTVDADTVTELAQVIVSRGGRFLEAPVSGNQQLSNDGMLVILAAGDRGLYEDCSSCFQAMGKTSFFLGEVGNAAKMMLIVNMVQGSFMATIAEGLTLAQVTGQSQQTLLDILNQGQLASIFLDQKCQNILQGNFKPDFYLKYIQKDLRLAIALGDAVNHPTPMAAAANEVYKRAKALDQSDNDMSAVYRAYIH
UniProt O15212, whole entry: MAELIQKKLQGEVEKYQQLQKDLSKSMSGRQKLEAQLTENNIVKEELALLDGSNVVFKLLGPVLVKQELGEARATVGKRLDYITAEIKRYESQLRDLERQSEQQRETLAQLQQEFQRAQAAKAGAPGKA
UniProt O00471: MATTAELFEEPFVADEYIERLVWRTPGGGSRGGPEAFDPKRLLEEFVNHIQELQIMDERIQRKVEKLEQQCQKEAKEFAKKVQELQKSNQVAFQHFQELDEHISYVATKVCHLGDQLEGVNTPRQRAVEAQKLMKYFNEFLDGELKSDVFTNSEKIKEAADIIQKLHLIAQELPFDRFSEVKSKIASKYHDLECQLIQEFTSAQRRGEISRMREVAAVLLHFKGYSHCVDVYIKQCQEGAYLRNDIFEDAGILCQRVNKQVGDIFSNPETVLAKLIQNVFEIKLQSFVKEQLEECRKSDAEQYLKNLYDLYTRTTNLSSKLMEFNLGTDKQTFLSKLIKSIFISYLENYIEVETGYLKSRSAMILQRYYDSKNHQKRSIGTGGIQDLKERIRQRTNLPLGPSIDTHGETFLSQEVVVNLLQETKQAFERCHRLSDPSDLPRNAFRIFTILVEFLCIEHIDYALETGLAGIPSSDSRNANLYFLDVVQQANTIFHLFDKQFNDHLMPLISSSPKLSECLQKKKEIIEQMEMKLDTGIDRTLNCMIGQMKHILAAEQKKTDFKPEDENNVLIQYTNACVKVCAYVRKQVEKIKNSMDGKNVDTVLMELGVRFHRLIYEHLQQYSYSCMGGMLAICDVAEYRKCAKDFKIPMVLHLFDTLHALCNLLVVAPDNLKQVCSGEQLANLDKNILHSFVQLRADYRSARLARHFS
UniProt P52272: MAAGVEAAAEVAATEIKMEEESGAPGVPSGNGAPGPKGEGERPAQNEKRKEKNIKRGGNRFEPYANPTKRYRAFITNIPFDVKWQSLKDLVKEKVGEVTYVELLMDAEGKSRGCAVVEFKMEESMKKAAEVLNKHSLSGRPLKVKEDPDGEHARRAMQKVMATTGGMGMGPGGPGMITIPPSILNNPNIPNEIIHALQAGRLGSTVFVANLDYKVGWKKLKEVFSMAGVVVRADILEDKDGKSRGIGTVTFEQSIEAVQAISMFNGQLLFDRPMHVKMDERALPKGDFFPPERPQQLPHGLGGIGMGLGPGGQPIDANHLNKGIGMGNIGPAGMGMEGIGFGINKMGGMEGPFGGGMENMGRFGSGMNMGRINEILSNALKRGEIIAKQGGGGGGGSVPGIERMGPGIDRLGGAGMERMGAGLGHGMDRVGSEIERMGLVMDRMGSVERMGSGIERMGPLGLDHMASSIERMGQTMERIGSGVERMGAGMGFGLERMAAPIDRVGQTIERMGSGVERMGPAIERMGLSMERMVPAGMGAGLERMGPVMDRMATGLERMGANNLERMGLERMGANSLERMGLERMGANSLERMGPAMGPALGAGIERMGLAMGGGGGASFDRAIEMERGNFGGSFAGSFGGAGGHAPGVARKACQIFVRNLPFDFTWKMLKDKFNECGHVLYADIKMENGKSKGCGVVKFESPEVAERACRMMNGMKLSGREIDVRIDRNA
UniProt O43149: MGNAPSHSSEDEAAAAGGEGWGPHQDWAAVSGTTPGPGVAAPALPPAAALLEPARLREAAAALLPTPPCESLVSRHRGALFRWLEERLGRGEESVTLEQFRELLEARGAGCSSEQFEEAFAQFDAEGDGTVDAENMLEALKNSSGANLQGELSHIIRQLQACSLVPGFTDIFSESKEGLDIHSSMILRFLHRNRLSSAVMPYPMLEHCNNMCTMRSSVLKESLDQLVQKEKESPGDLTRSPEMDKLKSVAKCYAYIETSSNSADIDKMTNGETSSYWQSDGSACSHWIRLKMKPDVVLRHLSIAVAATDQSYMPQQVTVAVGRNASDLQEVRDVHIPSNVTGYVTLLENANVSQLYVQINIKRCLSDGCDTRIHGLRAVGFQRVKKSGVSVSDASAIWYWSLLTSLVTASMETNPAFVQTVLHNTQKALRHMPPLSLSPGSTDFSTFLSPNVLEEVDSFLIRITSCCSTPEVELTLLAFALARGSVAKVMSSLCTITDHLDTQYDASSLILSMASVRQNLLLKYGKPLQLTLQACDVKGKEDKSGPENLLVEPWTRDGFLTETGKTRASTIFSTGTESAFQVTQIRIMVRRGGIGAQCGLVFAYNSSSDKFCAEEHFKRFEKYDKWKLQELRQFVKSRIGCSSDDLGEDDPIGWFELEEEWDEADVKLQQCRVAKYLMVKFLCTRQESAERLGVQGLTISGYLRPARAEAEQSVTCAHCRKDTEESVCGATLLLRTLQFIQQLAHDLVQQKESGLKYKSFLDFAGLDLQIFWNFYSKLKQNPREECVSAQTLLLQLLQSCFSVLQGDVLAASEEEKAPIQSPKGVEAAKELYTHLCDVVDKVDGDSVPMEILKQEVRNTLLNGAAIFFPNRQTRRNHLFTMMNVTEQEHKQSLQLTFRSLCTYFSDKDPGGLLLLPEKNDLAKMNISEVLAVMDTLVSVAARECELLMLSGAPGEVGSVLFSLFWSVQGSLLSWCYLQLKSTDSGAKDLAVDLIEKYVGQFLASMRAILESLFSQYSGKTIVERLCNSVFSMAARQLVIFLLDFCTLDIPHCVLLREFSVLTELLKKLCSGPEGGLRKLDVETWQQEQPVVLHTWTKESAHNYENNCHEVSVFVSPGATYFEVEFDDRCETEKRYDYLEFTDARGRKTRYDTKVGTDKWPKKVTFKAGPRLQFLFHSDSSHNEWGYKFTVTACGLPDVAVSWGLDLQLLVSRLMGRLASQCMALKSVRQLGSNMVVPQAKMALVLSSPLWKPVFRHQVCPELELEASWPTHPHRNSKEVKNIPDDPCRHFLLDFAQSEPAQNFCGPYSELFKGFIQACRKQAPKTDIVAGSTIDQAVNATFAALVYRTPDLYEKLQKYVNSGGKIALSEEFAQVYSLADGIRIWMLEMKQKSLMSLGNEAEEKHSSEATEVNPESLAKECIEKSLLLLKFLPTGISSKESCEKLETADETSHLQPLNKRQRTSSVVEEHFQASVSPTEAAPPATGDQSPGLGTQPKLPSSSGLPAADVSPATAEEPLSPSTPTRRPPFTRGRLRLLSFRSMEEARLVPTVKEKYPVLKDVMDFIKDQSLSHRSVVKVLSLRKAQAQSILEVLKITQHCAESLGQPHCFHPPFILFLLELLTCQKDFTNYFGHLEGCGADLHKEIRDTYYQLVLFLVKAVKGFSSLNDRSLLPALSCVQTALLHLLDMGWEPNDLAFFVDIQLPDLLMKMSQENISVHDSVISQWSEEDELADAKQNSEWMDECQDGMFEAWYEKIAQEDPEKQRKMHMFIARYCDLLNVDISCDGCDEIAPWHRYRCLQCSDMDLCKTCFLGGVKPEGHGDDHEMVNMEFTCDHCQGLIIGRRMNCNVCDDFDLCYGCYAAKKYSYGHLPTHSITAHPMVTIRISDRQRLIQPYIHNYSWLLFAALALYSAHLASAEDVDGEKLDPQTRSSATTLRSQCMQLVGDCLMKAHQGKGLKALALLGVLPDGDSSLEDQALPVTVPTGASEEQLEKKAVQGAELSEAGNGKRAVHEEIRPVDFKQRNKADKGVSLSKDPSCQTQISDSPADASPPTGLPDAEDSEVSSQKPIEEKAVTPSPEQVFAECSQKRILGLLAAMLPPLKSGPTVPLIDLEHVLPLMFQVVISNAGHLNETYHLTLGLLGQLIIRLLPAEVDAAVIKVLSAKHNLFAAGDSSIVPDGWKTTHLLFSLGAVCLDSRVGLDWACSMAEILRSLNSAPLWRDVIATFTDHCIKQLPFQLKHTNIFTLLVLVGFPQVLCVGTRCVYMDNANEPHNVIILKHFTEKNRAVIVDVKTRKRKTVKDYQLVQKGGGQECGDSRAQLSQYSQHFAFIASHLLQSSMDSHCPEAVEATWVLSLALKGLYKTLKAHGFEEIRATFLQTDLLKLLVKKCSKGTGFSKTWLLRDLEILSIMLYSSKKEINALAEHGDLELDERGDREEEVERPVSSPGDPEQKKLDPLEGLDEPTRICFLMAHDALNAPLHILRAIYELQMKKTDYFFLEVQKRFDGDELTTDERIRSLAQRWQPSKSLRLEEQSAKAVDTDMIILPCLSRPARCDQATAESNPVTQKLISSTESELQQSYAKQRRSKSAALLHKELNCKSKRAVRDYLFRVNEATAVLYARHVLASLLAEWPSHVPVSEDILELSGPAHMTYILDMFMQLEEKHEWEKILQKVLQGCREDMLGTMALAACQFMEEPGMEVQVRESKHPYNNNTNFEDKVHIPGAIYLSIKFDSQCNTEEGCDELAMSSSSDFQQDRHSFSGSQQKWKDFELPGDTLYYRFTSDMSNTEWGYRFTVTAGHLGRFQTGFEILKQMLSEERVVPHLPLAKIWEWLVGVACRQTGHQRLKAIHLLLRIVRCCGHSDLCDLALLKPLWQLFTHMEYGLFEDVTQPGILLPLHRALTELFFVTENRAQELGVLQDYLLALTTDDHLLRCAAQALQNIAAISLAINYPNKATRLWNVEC
UniProt O00754: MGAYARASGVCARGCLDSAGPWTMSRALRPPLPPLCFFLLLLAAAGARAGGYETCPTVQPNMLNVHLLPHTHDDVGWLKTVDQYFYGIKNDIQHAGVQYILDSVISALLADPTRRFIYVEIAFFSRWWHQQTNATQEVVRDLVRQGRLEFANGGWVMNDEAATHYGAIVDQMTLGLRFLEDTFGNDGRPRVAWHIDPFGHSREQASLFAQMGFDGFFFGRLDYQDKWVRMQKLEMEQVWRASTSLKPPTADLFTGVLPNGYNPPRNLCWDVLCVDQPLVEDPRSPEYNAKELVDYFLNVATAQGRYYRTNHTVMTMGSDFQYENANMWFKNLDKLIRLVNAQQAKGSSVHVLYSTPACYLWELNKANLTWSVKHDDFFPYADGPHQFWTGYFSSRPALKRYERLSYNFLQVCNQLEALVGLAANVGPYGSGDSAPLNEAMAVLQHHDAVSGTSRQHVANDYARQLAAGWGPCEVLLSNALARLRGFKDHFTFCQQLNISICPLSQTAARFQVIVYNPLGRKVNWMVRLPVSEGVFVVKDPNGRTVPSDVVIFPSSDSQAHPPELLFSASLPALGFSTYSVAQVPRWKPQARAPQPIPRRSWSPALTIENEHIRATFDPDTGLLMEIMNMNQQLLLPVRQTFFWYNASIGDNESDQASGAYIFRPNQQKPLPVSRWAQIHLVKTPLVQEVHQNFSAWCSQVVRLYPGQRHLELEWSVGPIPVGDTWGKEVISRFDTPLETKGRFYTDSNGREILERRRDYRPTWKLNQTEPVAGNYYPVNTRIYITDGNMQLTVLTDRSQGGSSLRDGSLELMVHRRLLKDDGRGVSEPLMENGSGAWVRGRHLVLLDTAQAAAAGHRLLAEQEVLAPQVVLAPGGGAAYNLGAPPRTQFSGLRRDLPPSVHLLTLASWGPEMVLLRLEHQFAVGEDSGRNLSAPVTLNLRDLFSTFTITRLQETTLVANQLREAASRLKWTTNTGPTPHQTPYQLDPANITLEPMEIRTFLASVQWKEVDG

± gives the standard deviation of the averaged measurements. The entries are a selection whose mix differs from that of the whole data set.

For K7EKM7 (UniProt O75264), the NP40-soluble protein abundance was 1 ± 0.035 (concentration: 1mM); 0.988 ± 0.015 (concentration: 2mM); 1 ± 0.038 (concentration: 4mM); 0.971 ± 0.032 (concentration: 6mM); 0.9753 ± 0.0085 (concentration: 8mM); 1.01 ± 0.014 (concentration: 10mM).

Turning to SLC9A3R1 (UniProt O14745), the NP40-soluble protein abundance by setting is: (concentration: 1mM) 1.014 ± 0.0091; (concentration: 2mM) 1.05 ± 0.074; (concentration: 4mM) 0.983 ± 0.031; (concentration: 6mM) 0.966 ± 0.018; (concentration: 8mM) 0.957 ± 0.011; (concentration: 10mM) 0.929 ± 0.049.

As to “K7EMM8 and related entries (UniProt Q49A26)”, the NP40-soluble protein abundance runs as follows: (concentration: 1mM) 1.07 ± 0.062; (concentration: 2mM) 1.14 ± 0.1; (concentration: 4mM) 1.16 ± 0.14; (concentration: 6mM) 1.25 ± 0.17; (concentration: 8mM) 1.31 ± 0.2; (concentration: 10mM) 1.47 ± 0.3.

As for PFDN6 (UniProt O15212), the NP40-soluble protein abundance was 0.952 ± 0.029 (concentration: 1mM); 0.976 ± 0.055 (concentration: 2mM); 0.905 ± 0.029 (concentration: 4mM); 0.892 ± 0.039 (concentration: 6mM); 0.86 ± 0.018 (concentration: 8mM); 0.85 ± 0.04 (concentration: 10mM).

As for UniProt O14617 and related entries, the NP40-soluble protein abundance by setting is: (concentration: 1mM) 0.999 ± 0.033; (concentration: 2mM) 1.03 ± 0.042; (concentration: 4mM) 1.01 ± 0.015; (concentration: 6mM) 1.03 ± 0.029; (concentration: 8mM) 1.01 ± 0.039; (concentration: 10mM) 1.02 ± 0.016.

With “M0QYA8 and related entries (UniProt Q8IV63)”, the NP40-soluble protein abundance runs as follows: (concentration: 1mM) 1.06 ± 0.016; (concentration: 2mM) 1.09 ± 0.024; (concentration: 4mM) 1.13 ± 0.017; (concentration: 6mM) 1.18 ± 0.043; (concentration: 8mM) 1.23 ± 0.07; (concentration: 10mM) 1.25 ± 0.075.

With CDIPT (UniProt O14735), the NP40-soluble protein abundance came out at 0.928 ± 0.062 (concentration: 1mM); 0.896 ± 0.042 (concentration: 2mM); 1 ± 0.019 (concentration: 4mM); 1.01 ± 0.088 (concentration: 6mM); 1.03 ± 0.073 (concentration: 8mM); 0.974 ± 0.039 (concentration: 10mM).

In the case of “K7ESQ2 and related entries (UniProt Q8NBT2)”, the NP40-soluble protein abundance by setting is: (concentration: 1mM) 0.95 ± 0.057; (concentration: 2mM) 0.998 ± 0.034; (concentration: 4mM) 0.913 ± 0.065; (concentration: 6mM) 0.85 ± 0.0095; (concentration: 8mM) 0.835 ± 0.028; (concentration: 10mM) 0.826 ± 0.064.

With EXOC5 (UniProt O00471), the NP40-soluble protein abundance amounted to 0.9819 ± 0.0085 (concentration: 1mM); 1.01 ± 0.02 (concentration: 2mM); 0.989 ± 0.013 (concentration: 4mM); 0.983 ± 0.025 (concentration: 6mM); 0.974 ± 0.017 (concentration: 8mM); 0.983 ± 0.02 (concentration: 10mM).

As for UniProt O00463 and related entries, the NP40-soluble protein abundance (concentration: 1mM) came to 0.994 ± 0.055; the NP40-soluble protein abundance (concentration: 2mM) came out at 0.984 ± 0.077; the NP40-soluble protein abundance (concentration: 4mM) turned out to be 0.977 ± 0.049; the NP40-soluble protein abundance (concentration: 6mM) came to 0.951 ± 0.025; the NP40-soluble protein abundance (concentration: 8mM) is 0.915 ± 0.051; the NP40-soluble protein abundance (concentration: 10mM) amounted to 0.914 ± 0.041.

On to PGRMC1 (UniProt O00264), for which the NP40-soluble protein abundance is, setting by setting: (concentration: 1mM) 0.945 ± 0.048; (concentration: 2mM) 1 ± 0.017; (concentration: 4mM) 0.947 ± 0.021; (concentration: 6mM) 0.938 ± 0.052; (concentration: 8mM) 0.967 ± 0.038; (concentration: 10mM) 0.943 ± 0.063.

With “M0QZM1 and related entries (UniProt P52272)”, the NP40-soluble protein abundance (concentration: 1mM) is 1.01 ± 0.034; the NP40-soluble protein abundance (concentration: 2mM) is 1.05 ± 0.037; the NP40-soluble protein abundance (concentration: 4mM) turned out to be 1.04 ± 0.018; the NP40-soluble protein abundance (concentration: 6mM) was 1.06 ± 0.055; the NP40-soluble protein abundance (concentration: 8mM) came to 1.06 ± 0.046; the NP40-soluble protein abundance (concentration: 10mM) worked out at 1.09 ± 0.037.

As for ARID1A (UniProt O14497), the NP40-soluble protein abundance runs as follows: (concentration: 1mM) 1.03 ± 0.061; (concentration: 2mM) 1.07 ± 0.04; (concentration: 4mM) 1.03 ± 0.039; (concentration: 6mM) 1.02 ± 0.072; (concentration: 8mM) 0.988 ± 0.051; (concentration: 10mM) 1.03 ± 0.07.

“K7EK00 and related entries (UniProt Q96ND0)”: the NP40-soluble protein abundance is, setting by setting: (concentration: 1mM) 0.992 ± 0.02; (concentration: 2mM) 1.03 ± 0.02; (concentration: 4mM) 0.985 ± 0.04; (concentration: 6mM) 1.03 ± 0.014; (concentration: 8mM) 0.993 ± 0.014; (concentration: 10mM) 1.028 ± 0.0082.

Consider ZZEF1 (UniProt O43149), for which the NP40-soluble protein abundance by setting is: (concentration: 1mM) 0.974 ± 0.059; (concentration: 2mM) 0.978 ± 0.057; (concentration: 4mM) 0.949 ± 0.072; (concentration: 6mM) 0.932 ± 0.099; (concentration: 8mM) 0.915 ± 0.075; (concentration: 10mM) 0.904 ± 0.11.

UniProt O00754 and related entries: the NP40-soluble protein abundance came out at 0.951 ± 0.047 (concentration: 1mM); 0.945 ± 0.036 (concentration: 2mM); 0.97 ± 0.027 (concentration: 4mM); 0.984 ± 0.053 (concentration: 6mM); 0.981 ± 0.048 (concentration: 8mM); 0.981 ± 0.042 (concentration: 10mM).

The record behind these values is the supplement of paper PMC6411743.
